These results are taken from publication PMC9985635.

This experiment concerns the target T1, Flag-LKB1 (UniProt Q15831).
T1 sequence: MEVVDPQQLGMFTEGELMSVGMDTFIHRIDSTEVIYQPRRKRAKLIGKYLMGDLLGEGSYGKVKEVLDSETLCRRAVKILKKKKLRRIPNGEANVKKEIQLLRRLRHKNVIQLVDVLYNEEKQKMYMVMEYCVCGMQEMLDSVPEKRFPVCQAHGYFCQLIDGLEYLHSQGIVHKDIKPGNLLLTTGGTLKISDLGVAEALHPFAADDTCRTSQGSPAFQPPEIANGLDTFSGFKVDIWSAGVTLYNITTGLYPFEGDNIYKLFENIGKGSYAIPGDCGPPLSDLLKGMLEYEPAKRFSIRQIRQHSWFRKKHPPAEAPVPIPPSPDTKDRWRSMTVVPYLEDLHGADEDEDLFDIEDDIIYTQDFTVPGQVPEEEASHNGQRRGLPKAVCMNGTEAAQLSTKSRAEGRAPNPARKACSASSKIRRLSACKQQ
The experiment can be described thus: affinity purification with mass spectrometry; control vector or Flag-LKB1-overexpressing vector in H1299 cells; immunoprecipitation with anti-Flag antibody, then NanoLC-ESI-MS/MS.

No constants are given. Whether binding was seen depends on the method and setting. In cells and extracts the contact can be indirect. These calls come from enrichment with a bait or labelling near it, and not all partners need be listed. Where a sequence is shown, tags or fusion partners need not be part of it.

B1: retinoblastoma protein RB (H1299 cells) (protein, UniProt P06400 1-928)
chain: MPPKTPRKTAATAAAAAAEPPAPPPPPPPEEDPEQDSGPEDLPLVRLEFEETEEPDFTALCQKLKIPDHVRERAWLTWEKVSSVDGVLGGYIQKKKELWGICIFIAAVDLDEMSFTFTELQKNIEISVHKFFNLLKEIDTSTKVDNAMSRLLKKYDVLFALFSKLERTCELIYLTQPSSSISTEINSALVLKVSWITFLLAKGEVLQMEDDLVISFQLMLCVLDYFIKLSPPMLLKEPYKTAVIPINGSPRTPRRGQNRSARIAKQLENDTRIIEVLCKEHECNIDEVKNVYFKNFIPFMNSLGLVTSNGLPEVENLSKRYEEIYLKNKDLDARLFLDHDKTLQTDSIDSFETQRTPRKSNLDEEVNVIPPHTPVRTVMNTIQQLMMILNSASDQPSENLISYFNNCTVNPKESILKRVKDIGYIFKEKFAKAVGQGCVEIGSQRYKLGVRLYYRVMESMLKSEEERLSIQNFSKLLNDNIFHMSLLACALEVVMATYSRSTSQNLDSGTDLSFPWILNVLNLKAFDFYKVIESFIKAEGNLTREMIKHLERCEHRIMESLAWLSDSPLFDLIKQSKDREGPTDHLESACPLNLPLQNNHTAADMYLSPVRSPKKKGSTTRVNSTANAETQATSAFQTQKPLKSTSLSLFYKKVYRLAYLRLNTLCERLLSEHPELEHIIWTLFQHTLQNEYELMRDRHLDQIMMCSMYGICKVKNIDLKFKIIVTAYKDLPHAVQETFKRVLIKEEEYDSIIVFYNSVFMQRLKTNILQYASTRPPTLSPIPHIPRSPYKFPSSPLRIPGGNIYISPLKSPYKISEGLPTPTKMTPRSRILVSIGESFGTSEKFQKINQMVCNSDRVLKRSAEGSNPPKPLKKLRFDIEGSDEADGSKHLPGESKFQQKLAEMTSTRTRMQKQKMNDSMDTSNKEEK
Turning to B1, the binding entry is listed as “binds”.
